# Data from patent publication US9993536B2, “Peptides and combination of peptides and scaffolds for use in immunotherapy against renal cell carcinoma (RCC) and other cancers” (immatics biotechnologies GmbH, priority 2015, dated 2018).
# Experiments:
# [1] = system: tumor samples of other tumor types; assay: LC-MS detection/over-presentation of peptides on additional tumor types vs normal tissues; set-up: species or system human; conditions: for Additional Entities: additional tumor types: over-presentation on more than 5% of measured tumor samples, or presentation on more than 5% with ratio of geometric means tumor vs normal larger than 3; for Other relevant organs/diseases: additional tumor types: over-presented on more than 5% of measured tumor samples, or presented on more than 5% with ratio of geometric means tumor vs normal tissues larger than 3
# RCC samples = assay: Label-free relative LC-MS quantitation of HLA-presented peptides (presentation profile/score), RCC vs normal tissues; set-up: species or system human; key: very highly over-presented on tumors compared to a panel of normal tissues (+++); highly over-presented on tumors compared to a panel of normal tissues (++); over-presented on tumors compared to a panel of normal tissues (+); conditions: tumors (RCC) compared to a panel of normal tissues
Substance,Additional Entities [1],Other relevant organs/diseases [1],Peptide Presentation (presentation score) (RCC samples)
38 (VLLDTILQL; listed as Homo sapiens) [compound 38],"NSCLC, SCLC, CLL, BRCA, Esophageal Cancer, Urinary bladder cancer, Uterine Cancer, Gallbladder Cancer, Bile Duct Cancer, AML, NHL, OC","Brain, Liver, Pancreas, Melanoma, Ovary",+++
47 (TLAEVRAVQEI; listed as Homo sapiens) [compound 47],,"Liver, Melanoma",+
88 (TLAELHISL; listed as Homo sapiens) [compound 88],"CLL, Esophageal Cancer",Ovary,+
119 (RLHDENILL; listed as Homo sapiens) [compound 119],,"Lung, Brain, Colon, Rectum, Liver, Pancreas, Prostate, Ovary, Esophagus",+++
40 (YIQEHLLQI; listed as Homo sapiens) [compound 40],Melanoma,,++
100 (KLNVAPLAV; listed as Homo sapiens) [compound 100],"CLL, BRCA, Uterine Cancer, AML, NHL, OC","Lung, Brain, Colon, Rectum, Liver, Pancreas, Melanoma, Ovary",+
28 (FIADLVVGL; listed as Homo sapiens) [compound 28],"SCLC, CLL, AML, NHL",Melanoma,++
121 (ALLRTVVSV; listed as Homo sapiens) [compound 121],,"Lung, Liver, Pancreas, Breast, Ovary",++
5 (YLYPNLTRL; listed as Homo sapiens) [compound 5],,Liver,+++
24 (FTLGTTVFL; listed as Homo sapiens) [compound 24],"Melanoma, Uterine Cancer, NHL","Liver, Prostate, Leukocytes, Esophagus",++
130 (ALPTVLVGV; listed as Homo sapiens) [compound 130],,"Lung, Brain, Stomach, Colon, Rectum, Liver, Melanoma, Esophagus",++
49 (VLIVEVPGV; listed as Homo sapiens) [compound 49],"Gallbladder Cancer, Bile Duct Cancer, OC",Ovary,+++
103 (KLQDGLLHI; listed as Homo sapiens) [compound 103],"SCLC, PC, Melanoma, OC, NHL","Brain, Colon, Rectum, Liver",+++
17 (ILAQQVHAL; listed as Homo sapiens) [compound 17],Uterine Cancer,,+++
16 (FMPEELPQL; listed as Homo sapiens) [compound 16],,"Pancreas, Breast, Ovary",+++
57 (SLQKEILYL; listed as Homo sapiens) [compound 57],Melanoma,,+++
135: peptide found in SLC16A3 (gene looked up) (VVDEGPTGV; listed as Homo sapiens) [compound 135],,"Lung, Brain, Stomach, Liver, Pancreas, Leukocytes, Breast, Ovary, Esophagus",+++
4 (FLSQDIITV; listed as Homo sapiens) [compound 4],Uterine Cancer,,+++
67 (LLDVLAPLV; listed as Homo sapiens) [compound 67],"CRC, Melanoma, Urinary bladder cancer, Uterine Cancer, Gallbladder Cancer, Bile Duct Cancer","Lung, Stomach, Liver, Pancreas, Breast, Esophagus",+
90 (FTLEKNFVI; listed as Homo sapiens) [compound 90],"CRC, BRCA, PC",Prostate,++
143 (ALFVRLLALA; listed as Homo sapiens) [compound 143],,"Lung, Brain, Stomach, Colon, Rectum, Liver, Melanoma, Esophagus",++
8 (GLASFKSFL; listed as Homo sapiens) [compound 8],"Melanoma, Urinary bladder cancer, Uterine Cancer, Gallbladder Cancer, Bile Duct Cancer",Pancreas,+++
116 (GLVDIMVHL; listed as Homo sapiens) [compound 116],,Ovary,+++

Substance,Additional Entities [1],Other relevant organs/diseases [1],Peptide Presentation (presentation score) (RCC samples)
34 (ELNNQNFYL; listed as Homo sapiens) [compound 34],"CRC, Urinary bladder cancer, AML, NHL","Melanoma, Esophagus",+++
106 (VLMDLKALL; listed as Homo sapiens) [compound 106],AML,,+
115 (LLDPKTIFL; listed as Homo sapiens) [compound 115],,"Colon, Rectum, Liver",+++
33 (FIADVVEKI; listed as Homo sapiens) [compound 33],"SCLC, BRCA, Esophageal Cancer","Lung, Leukocytes, Ovary",+++
52 (SILDAVQRV; listed as Homo sapiens) [compound 52],"SCLC, BRCA, Melanoma, Uterine Cancer","Lung, Brain, Pancreas, Ovary",+++
137 (TLVAIVVGV; listed as Homo sapiens) [compound 137],,"Lung, Brain, Stomach, Colon, Rectum, Liver, Pancreas, Prostate, Breast, Ovary",++
12 (ALDPSGNQLI; listed as Homo sapiens) [compound 12],,Ovary,+++
150 (TLMPNINKL; listed as Homo sapiens) [compound 150],,Liver,+++
73 (GLDGIPFTV; listed as Homo sapiens) [compound 73],"GC, Urinary bladder cancer, Uterine Cancer, AML","Brain, Pancreas, Breast, Melanoma",++
29 (ILLDLEQAL; listed as Homo sapiens) [compound 29],"Melanoma, Urinary bladder cancer, Uterine Cancer, Gallbladder Cancer, Bile Duct Cancer, AML, NHL, OC","Lung, Pancreas, Prostate, Breast, Ovary",+
99 (GLAPHLEQI; listed as Homo sapiens) [compound 99],"BRCA, Melanoma, AML, NHL","Liver, Ovary",+
110 (LLDLHSYLL; listed as Homo sapiens) [compound 110],Uterine Cancer,"Stomach, Leukocytes",+
69 (ILADLLPSL; listed as Homo sapiens) [compound 69],"SCLC, Melanoma, Esophageal Cancer, Uterine Cancer, AML, NHL","Lung, Brain, Pancreas, Breast, Ovary",++
26 (SLMEILYTL; listed as Homo sapiens) [compound 26],"Melanoma, Gallbladder Cancer, Bile Duct Cancer, AML, OC, SCLC","Colon, Rectum, Pancreas, Prostate, Ovary",+++
75 (FLIKSINLV; listed as Homo sapiens) [compound 75],"CLL, Melanoma, AML",,++
68 (YVLTQPPSV; listed as Homo sapiens) [compound 68],BRCA,"Lung, Pancreas, Leukocytes, Esophagus",+++
145 (SLHFLILYV; listed as Homo sapiens) [compound 145],,"Lung, Brain, Colon, Rectum, Liver, Melanoma, Ovary",+
43 (YLKDELDEL; listed as Homo sapiens) [compound 43],"Esophageal Cancer, Gallbladder Cancer, Bile Duct Cancer, NHL",,+++
72 (YSLEKVFGI; listed as Homo sapiens) [compound 72],"Brain Cancer, GC, CRC, PrC, BRCA, Melanoma, OC, Urinary bladder cancer, AML, PC",Liver,+
92 (FLFRDILEL; listed as Homo sapiens) [compound 92],"Melanoma, AML",,+++
78 (ALLDTVVQA; listed as Homo sapiens) [compound 78],BRCA,"Liver, Prostate",+
39 (YLLNLNHLGL; listed as Homo sapiens) [compound 39],NHL,"Lung, Liver, Leukocytes",+++
107 (VLMDLKALLL; listed as Homo sapiens) [compound 107],AML,"Prostate, Leukocytes, Ovary",++
